Experimental data reported in publication PMC5829068.
These are yes or no findings as the source states them, for the method shown. Binding seen in cells or lysates may run through a third protein. Some entries that bind do so weakly or less than the wild type.

Amino acid sequences for entries named in this document (tags omitted). Residues count along the entry.
UniProt Q13546: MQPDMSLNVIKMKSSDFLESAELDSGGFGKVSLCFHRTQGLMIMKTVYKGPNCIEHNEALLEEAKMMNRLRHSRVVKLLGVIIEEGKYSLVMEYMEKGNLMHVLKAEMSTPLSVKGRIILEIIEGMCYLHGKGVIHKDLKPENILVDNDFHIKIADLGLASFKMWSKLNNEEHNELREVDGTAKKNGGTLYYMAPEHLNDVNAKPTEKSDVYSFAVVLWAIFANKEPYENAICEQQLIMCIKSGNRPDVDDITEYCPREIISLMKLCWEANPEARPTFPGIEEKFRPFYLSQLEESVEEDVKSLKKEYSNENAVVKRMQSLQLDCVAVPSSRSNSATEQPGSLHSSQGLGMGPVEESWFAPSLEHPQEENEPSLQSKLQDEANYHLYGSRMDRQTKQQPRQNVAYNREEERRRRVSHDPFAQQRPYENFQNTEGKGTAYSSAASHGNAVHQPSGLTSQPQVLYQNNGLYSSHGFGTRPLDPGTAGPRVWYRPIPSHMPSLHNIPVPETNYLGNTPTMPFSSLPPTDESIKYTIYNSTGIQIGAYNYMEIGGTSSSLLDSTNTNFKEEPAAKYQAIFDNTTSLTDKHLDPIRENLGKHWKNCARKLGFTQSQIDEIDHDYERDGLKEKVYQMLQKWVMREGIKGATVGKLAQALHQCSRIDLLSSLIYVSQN
UniProt P02748, residues 22-559: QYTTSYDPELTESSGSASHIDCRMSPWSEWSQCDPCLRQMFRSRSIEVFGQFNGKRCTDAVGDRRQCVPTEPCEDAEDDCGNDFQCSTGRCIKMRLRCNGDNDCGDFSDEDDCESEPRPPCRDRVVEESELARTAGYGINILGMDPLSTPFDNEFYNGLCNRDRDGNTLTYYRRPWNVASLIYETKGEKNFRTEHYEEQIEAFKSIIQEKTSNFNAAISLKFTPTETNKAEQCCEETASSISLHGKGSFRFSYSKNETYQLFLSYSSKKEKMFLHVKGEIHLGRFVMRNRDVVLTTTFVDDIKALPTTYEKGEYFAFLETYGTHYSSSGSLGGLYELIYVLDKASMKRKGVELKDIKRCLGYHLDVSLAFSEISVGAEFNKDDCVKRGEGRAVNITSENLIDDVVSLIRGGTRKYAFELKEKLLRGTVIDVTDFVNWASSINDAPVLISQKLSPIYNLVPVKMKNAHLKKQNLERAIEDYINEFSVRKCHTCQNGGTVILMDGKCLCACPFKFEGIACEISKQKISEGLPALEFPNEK
UniProt Q9Y572: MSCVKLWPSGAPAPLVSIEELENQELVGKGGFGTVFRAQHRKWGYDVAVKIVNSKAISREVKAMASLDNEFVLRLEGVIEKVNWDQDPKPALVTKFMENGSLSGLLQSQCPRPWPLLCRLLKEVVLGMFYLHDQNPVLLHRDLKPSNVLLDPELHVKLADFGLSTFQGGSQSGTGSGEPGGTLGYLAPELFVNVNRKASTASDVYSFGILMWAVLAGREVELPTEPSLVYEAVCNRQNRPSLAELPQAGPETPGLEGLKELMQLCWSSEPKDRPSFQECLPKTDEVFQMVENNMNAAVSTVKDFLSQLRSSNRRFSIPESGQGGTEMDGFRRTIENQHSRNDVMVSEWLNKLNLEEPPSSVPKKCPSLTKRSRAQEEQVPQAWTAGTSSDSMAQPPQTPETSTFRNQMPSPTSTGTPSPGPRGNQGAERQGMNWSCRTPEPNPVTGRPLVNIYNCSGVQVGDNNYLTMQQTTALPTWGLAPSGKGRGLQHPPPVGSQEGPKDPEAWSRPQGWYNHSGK

Assays:
[1] = biological target: receptor-interacting protein kinase 1 (RIPK1) (human (endogenous in K562)) (UniProt Q13546); experiment: co-IP; anti-RIPK1 antibody on Protein-A/G agarose beads, 1 h at 4°C; lysates (0.2% NP-40, 20 mM Tris-HCl pH 7.5, 150 mM NaCl, 1 mM EDTA, 10% glycerol) of Flag-RIPK3 K562 cells treated with a sublytic dose of antibody and complement (NHS) for 1-10 min at 37°C; Western blot with anti-Flag
[2] = biological target: receptor-interacting protein kinase 1 (RIPK1) (human (endogenous in K562)) (UniProt Q13546); experiment: condition: only cells treated with HIS or untreated (no active complement); FRET or BRET; as a3, but cells treated with HIS or untreated control cells
complement C9 (human) = complement C9 (human) (UniProt P02748); experiment: co-IP; anti-C9 antibody on Protein-A/G agarose beads; lysates (100 mM Tris pH 7.5, 0.77% Triton X-100, 10 mM EDTA) of K562 cells treated for 10 min with sublytic antibody and complement (NHS); Western blot with anti-C9 and anti-MLKL

Flag-tagged receptor-interacting protein kinase 3 (Flag-RIPK3) (from UniProt Q9Y572 1-518)
binding [1]: binds
binding [2]: no binding

B1: mixed lineage kinase domain-like protein (MLKL) (protein, UniProt Q8NB16 1-471)
chain: MENLKHIITLGQVIHKRCEEMKYCKKQCRRLGHRVLGLIKPLEMLQDQGKRSVPSEKLTTAMNRFKAALEEANGEIEKFSNRSNICRFLTASQDKILFKDVNRKLSDVWKELSLLLQVEQRMPVSPISQGASWAQEDQQDADEDRRAFQMLRRDNEKIEASLRRLEINMKEIKETLRQYLPPKCMQEIPQEQIKEIKKEQLSGSPWILLRENEVSTLYKGEYHRAPVAIKVFKKLQAGSIAIVRQTFNKEIKTMKKFESPNILRIFGICIDETVTPPQFSIVMEYCELGTLRELLDREKDLTLGKRMVLVLGAARGLYRLHHSEAPELHGKIRSSNFLVTQGYQVKLAGFELRKTQTSMSLGTTREKTDRVKSTAYLSPQELEDVFYQYDVKSEIYSFGIVLWEIATGDIPFQGCNSEKIRKLVAVKRQQEPLGEDCPSELREIIDECRAHDPSVRPSVDEILKKLSTFSK
binding (complement C9 (human)): binds
